{"source": "PubChem BioAssay AID2685", "about": "(National Center for Advancing Translational Sciences (NCATS), 2010)", "note": "Among all 320,000 compounds or so, about 2,100 (0.66%) were called active. Inconclusive means that the source gave no clear call. Such entries were picked first, then a sample of the others. Calls come from the whole dose curve; as a rule, active = well fitted inhibition curve with a large enough effect in the signal ratio, with a control signal flat (not every such curve was filed as active); inconclusive = small, poorly fitted or top-dose-only effect, or effect the other way, or a change in a side signal; inactive = flat fitted curve, though single readings scatter; the % refers to the signal ratio. Where the call is inconclusive, the potency comes from a doubtful curve fit. % is set by controls: 0 for no effect and ±100 for the full control effect; potency is the fitted concentration of half-maximal effect.", "data": [{"experiment": "qHTS Assay for Lipid Storage Modulators in Drosophila S3 Cells", "conditions": "BODIPY lipid droplet fluorescence, 18-24 h, cells fed with added oleic acid; lipid storage change, negative = inhibition: at 46.1 µM (top of the series) unless noted", "in_short": "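Drosophila S3 cells got compounds at several concentrations plus oleic acid (400 uM solution). Laser-scanning cytometry with 488 nm excitation read lipid droplets at 500-530 nm and cells at 575-640 nm. Percent activity was relative to 20 uM Triacsin C.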", "values": [{"smiles": "O=C(NCc1ccc2c(c1)OCO2)Nc1ccc(F)cc1", "lipid storage change, negative = inhibition": "inconclusive: 3.01%"}, {"smiles": "O/N=C1\\CCCC\\C1=C/c1ccccc1", "lipid storage change, negative = inhibition": "inconclusive: 20.8%"}, {"smiles": "O=C(CCc1nnc(CCCCc2ccccc2)o1)NCc1cc(F)ccc1F", "lipid storage change, negative = inhibition": "inconclusive: -22.3%"}, {"smiles": "CCOc1ccc(NC(=O)CN(C)C(=O)c2cccnc2Sc2ccc(C)c(C)c2)cc1OCC", "Potency": "inconclusive: 0.58 µM [falling, single point]"}, {"smiles": "CCCCn1c(N)c(N(CCOC)C(=O)c2cccc(S(=O)(=O)N3CCCCCC3)c2)c(=O)[nH]c1=O", "lipid storage change, negative = inhibition": "inconclusive"}, {"smiles": "Cc1cccc(N(C)S(=O)(=O)c2cc3c(cc2C)n(C)c(=O)c(=O)n3C)c1", "Potency": "active: 13 µM"}, {"smiles": "COc1ccccc1NC(=O)C(=O)NNC(=O)c1ccco1", "Potency": "inconclusive: 0.461 µM [rising, partial curve, poor fit]"}, {"smiles": "CCc1cc(CNC(=O)c2ccc(OC3CCN(C(C)=O)CC3)c(OC)c2)on1", "Potency": "inconclusive: 29.1 µM [falling, single point]"}, {"smiles": "O=C(CNC(=O)c1cccs1)OCc1ccc(Cl)cc1", "lipid storage change, negative = inhibition": "inconclusive: 438%"}, {"smiles": "CCOc1ccc(S(=O)(=O)N2CCN(C(=O)c3cc4c(s3)CCCC4)CC2)cc1", "Potency": "inconclusive: 18.4 µM [activator, partial curve, poor fit]"}, {"smiles": "O=C(NCCCn1ccnc1)c1cn(-c2ccccc2)nc1-c1ccc(F)cc1", "Potency": "inconclusive: 1.3 µM [activator, full curve]"}, {"smiles": "CSc1cccc(NC(=O)c2ccccc2N(C)S(C)(=O)=O)c1", "Potency": "inconclusive: 0.0046 µM [falling, full curve, poor fit]"}, {"smiles": "Cc1c(Cl)cccc1NC(=O)CCN1CCOCC1", "lipid storage change, negative = inhibition": "inconclusive: 29.5%"}, {"smiles": "c1ccc(-c2nc(N3CCOCC3)cc(N3CCOCC3)n2)cc1", "lipid storage change, negative = inhibition": "inconclusive: -80.7%"}, {"smiles": "O=C(Nc1ccc(Cl)c(Cl)c1)c1ccccc1", "lipid storage change, negative = inhibition": "inconclusive: 8.22%"}, {"smiles": "CC1Nc2ncnc(N3CCN(c4ccccc4)CC3)c2N(Cc2ccc(Cl)cc2)C1=O", "note": "(stereo unspecified)", "Potency": "inconclusive: 29.1 µM [falling, single point]"}, {"smiles": "CCc1nnc(NC(=O)CCC(=O)Nc2ccc(Cl)cc2)s1", "Potency": "inconclusive: 23.1 µM [falling, single point]"}, {"smiles": "CCCC(=O)NC(c1ccco1)c1cc(Cl)c2cccnc2c1O", "note": "(stereo unspecified)", "lipid storage change, negative = inhibition": "inconclusive: 87.5%"}, {"smiles": "COCCN(CCOC)C(=O)CC(=O)N(CCOC)CCOC", "Potency": "inconclusive: 0.164 µM [falling, full curve, poor fit]"}, {"smiles": "CCOC(=O)C1CCN(C(=O)CNC(=O)c2nn(-c3ccc(OC)cc3)c(=O)c3ccccc23)CC1", "Potency": "inconclusive: 29.1 µM [falling, single point]"}, {"smiles": "COc1ccccc1C(=O)NCC(=O)NCC1(N2CCCCC2)CCCCC1", "Potency": "inconclusive: 4.61 µM [activator, partial curve]"}, {"smiles": "CCOC(=O)[C@H]1[C@H]2COc3ccc(C)cc3[C@@H]2N2C(=O)c3cc(OC)c(OC)cc3NC(=O)[C@@]12C", "lipid storage change, negative = inhibition": "inconclusive: 6.35%"}, {"smiles": "O=C(Nc1ccccc1C(=O)NCCCN1CCOCC1)c1ccc(F)cc1", "Potency": "inconclusive: 4.11 µM [activator, partial curve, poor fit]"}, {"smiles": "COc1ccc(NC(=S)N2CCN(C/C=C/c3ccccc3)CC2)c(OC)c1", "lipid storage change, negative = inhibition": "inconclusive: -15.1%"}, {"smiles": "Cc1ccc(NC(=O)CSc2ccccc2NC(=O)c2cccc(Cl)c2)cc1Cl", "lipid storage change, negative = inhibition": "inactive"}, {"smiles": "O=c1cc(-c2ccccc2Cl)oc2cccc(O)c12", "lipid storage change, negative = inhibition": "inconclusive: 24.8%"}, {"smiles": "CCOC(=O)c1c(C)oc2cc(Br)c(OC(C)C(=O)OCC)cc12", "note": "(stereo unspecified)", "Potency": "inconclusive: 25.9 µM [activator, single point]"}, {"smiles": "O=C1C=C(NC2CCCC2)CC(c2ccccc2)C1", "note": "(stereo unspecified)", "lipid storage change, negative = inhibition": "inconclusive: 13.8%"}, {"smiles": "CNC(=O)c1sc(Nc2ccc(OCc3ccccc3)cc2)nc1C", "lipid storage change, negative = inhibition": "inconclusive: 22.3%"}, {"smiles": "Cc1ccc(NC(=O)C(C)OC(=O)COc2cccc(C(F)(F)F)c2)cc1", "note": "(stereo unspecified)", "lipid storage change, negative = inhibition": "inactive"}, {"smiles": "O=C(c1cc2ccccc2cc1O)N1CCN(c2ccc([N+](=O)[O-])cc2)CC1", "lipid storage change, negative = inhibition": "inconclusive: 53.5%"}, {"smiles": "COc1cc(NC(=O)c2ccc([N+](=O)[O-])cc2)c(OC)cc1NC(=O)CC(C)C", "lipid storage change, negative = inhibition": "inactive"}, {"smiles": "COc1ccc(N/C=C(\\C#N)S(=O)(=O)c2ccc(Cl)cc2)c(OC)c1", "lipid storage change, negative = inhibition": "inconclusive: 13.7%"}, {"smiles": "O=C1c2ccccc2C(=O)N1C/C=C/CN1C(=O)c2ccccc2C1=O", "lipid storage change, negative = inhibition": "inconclusive: -80.9%"}, {"smiles": "Cc1ccc(-c2cc(C(=O)NCc3cnn(C)c3)c3cc(Br)ccc3n2)cc1", "Potency": "inconclusive: 29.1 µM [falling, single point]"}, {"smiles": "O=C(O)c1ccc(NC(=O)C2C3CCC(O3)C2C(=O)O)cc1", "note": "(stereo unspecified)", "lipid storage change, negative = inhibition": "inconclusive: 26.1%"}, {"smiles": "O=C(Nc1ccc(Cc2ccncc2)cc1)c1cc([N+](=O)[O-])ccc1N1CCOCC1", "lipid storage change, negative = inhibition": "inconclusive: 11%"}, {"smiles": "[O-][N+]12CCN(CC1)c1ccccc12", "Potency": "inconclusive: 0.116 µM [falling, full curve, poor fit]"}, {"smiles": "CCOc1cc(/C=C/c2nc3cc(C)c(C)cc3s2)ccc1OCC(=O)N1CCOCC1", "Potency": "inconclusive: 29.1 µM [falling, partial curve, poor fit]"}, {"smiles": "CC(C)(C)NC(=O)c1cc(NC(=O)c2cccs2)cc(NC(=O)c2cccs2)c1", "Potency": "inconclusive: 6.51 µM [falling, single point]"}, {"smiles": "Cc1cc(NC(=S)NC(=O)C2CC2)ccc1Br", "Potency": "inconclusive: 20.6 µM [cytotoxic, single point]"}, {"smiles": "CC(C)(C)OC(=O)[C@H](Cc1ccccc1)NC(=O)c1nc[nH]c1C(=O)N1CCc2ccccc2C1", "Potency": "inconclusive: 29.1 µM [falling, single point]"}, {"smiles": "CN(C1CCCCC1)S(=O)(=O)c1ccc(=S)[nH]c1", "lipid storage change, negative = inhibition": "inconclusive: -15.4%"}, {"smiles": "COc1cc(OC)cc(C(=O)Nc2ccccc2C(=O)NCc2cccnc2)c1", "Potency": "inconclusive: 29.1 µM [falling, single point]"}, {"smiles": "C=CCN1C(=O)CS/C1=N\\S(=O)(=O)c1ccc(Cl)cc1", "lipid storage change, negative = inhibition": "inconclusive: 21.1%"}, {"smiles": "COc1ccc(S(=O)(=O)N(C)CC(=O)NCCN2CCOCC2)cc1", "Potency": "inconclusive: 0.116 µM [falling, full curve, poor fit]"}]}]}
